Test results: patent publication US20110118181A1

Protein sequences, listed by entry. Tags and fused reporters are not part of them. Lines headed by an entry give the natural chain unless they say otherwise; changes in a name come on top. Residues count along the entry.
UniProt P04083: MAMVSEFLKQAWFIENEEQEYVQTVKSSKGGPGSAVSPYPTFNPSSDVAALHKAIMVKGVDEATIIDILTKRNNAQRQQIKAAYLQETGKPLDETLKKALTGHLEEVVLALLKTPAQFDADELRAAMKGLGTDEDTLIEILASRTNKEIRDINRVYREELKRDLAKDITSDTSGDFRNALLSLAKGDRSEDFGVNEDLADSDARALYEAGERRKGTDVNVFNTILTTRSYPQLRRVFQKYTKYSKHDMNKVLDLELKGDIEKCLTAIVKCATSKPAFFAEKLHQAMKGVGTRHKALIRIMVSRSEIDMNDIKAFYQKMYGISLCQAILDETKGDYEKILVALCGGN
UniProt Q8NBP7, residues 31-692: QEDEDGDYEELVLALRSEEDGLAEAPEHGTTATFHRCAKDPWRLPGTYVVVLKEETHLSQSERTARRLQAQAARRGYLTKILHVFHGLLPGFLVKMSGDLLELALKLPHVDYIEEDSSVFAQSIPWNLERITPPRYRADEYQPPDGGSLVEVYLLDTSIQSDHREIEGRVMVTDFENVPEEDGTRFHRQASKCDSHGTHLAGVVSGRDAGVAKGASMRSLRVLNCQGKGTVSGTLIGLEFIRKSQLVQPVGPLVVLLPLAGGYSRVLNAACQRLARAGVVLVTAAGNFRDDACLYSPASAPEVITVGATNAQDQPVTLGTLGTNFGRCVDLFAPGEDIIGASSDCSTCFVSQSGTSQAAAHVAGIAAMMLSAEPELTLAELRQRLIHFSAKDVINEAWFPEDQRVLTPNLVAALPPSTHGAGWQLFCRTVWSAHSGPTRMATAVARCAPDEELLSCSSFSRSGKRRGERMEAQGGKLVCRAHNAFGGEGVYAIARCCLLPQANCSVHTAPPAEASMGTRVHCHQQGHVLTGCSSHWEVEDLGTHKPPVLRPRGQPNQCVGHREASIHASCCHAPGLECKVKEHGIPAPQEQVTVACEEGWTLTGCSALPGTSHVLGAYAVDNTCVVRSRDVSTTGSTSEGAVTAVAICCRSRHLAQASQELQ

Molecular target: AnxA2 SW49-61 (AnxA2 aa 49-61 replaced by AnxA1 aa 58-70), HA-tagged (human) (UniProt P04083)
Test: Far Western blot of HEK293 lysates (49-61 swap: reduced)

- binding: binds
Substance: PCSK9-V5 (full-length human PCSK9 with C-terminal V5 tag) (from UniProt Q8NBP7 31-692) (enzyme)

Results are given in words; binding and its absence hold for the method and conditions named. Binding calls can cover weak binding; strength is not graded here.
